# According to US20110257145A1, “METHOD OF TREATING NEUROLOGICAL DISEASES” (THE BOARD OF TRUSTEES OF THE UNIVERSITY OF ILLINOIS, priority 2008, published 2011):
# Some of these results come from one statement about several compounds together.
# Tests used:
# [1] = system: acetylated histone H4 in primary cortical neurons; assay: Western blot of histone H4 acetylation; assay type: cell-based, rat; conditions: 10 μM, 8 hours
# Description: (§1) Primary neurons and cell culture: Cell cultures were obtained from the cerebral cortex of fetal Sprague-Dawley rats (embryonic day 17), as described previously. All experiments were initiated 24 hours after plating. Under these conditions, the cells are not susceptible to glutamate-mediated excitotoxicity.
# Histone precipitation and Western blot analysis: Treated neurons (about 1×10^6) were incubated in hypotonic lysis buffer (1 mL) containing Tris-HCl (pH 8.0, 10 mM), KCl (1 mM), MgCl2 (1.5 mm), DTT (1 mM), aprotinin (1 mM), pepstatin (1 mM), and PMSF (0.4 mM) for 30 minutes, rotating at 4° C. Nuclei were pelleted by centrifugation for 10 minutes at 10,000 rpm (9000 g), resuspended in H2SO4 (0.4N, 200 μL), and rotated for 12 hours at 4° C. Following centrifugation at 13,000 rpm (16,000 g value) for 10 minutes, the supernatant was transferred to anew tube, and the histone proteins were precipitated by adding 100% trichloroacetic acid (TCA: 66 μL) dropwise followed by 30 minutes incubation on ice. Histone proteins were pelleted by centrifugation at 13,000 rpm (16,000 g) for 10 minutes, washed twice with ice-cold acetone, dried at room temperature for 20-40 minutes, and resuspended in H2O (50 mL). […] Acetyl histone H4 and total histone H4 immunoreactivity was detected according to the enhanced chemiluminescent protocol (Amersham Biosciences, Fairfield, Conn.). […]
# [2] = system: primary cortical neurons; assay: HCA oxidative stress neuroprotection, cortical neurons (MTT); assay type: cell-based, rat; conditions: 10 μM, presence of HCA, 48 hours
# Description: as §1
# Oxidative toxicity and neuron viability assays: For cytotoxicity studies, cells were rinsed with warm phosphate-buffered saline (PBS), then placed in minimum essential medium (Invitrogen, Carlsbad, Calif.) containing glucose (5.5 g L^−1), 10% fetal calf serum, L-glutamine (2 mM), and cysteine (100 μM). […] Viability was assessed after 48 hours by calceinacetoxymethyl ester (AM)/ethidium homodimer-1 staining (live/dead assay; Molecular Probes, Eugene, Oreg., USA) under fluorescence microscopy and the MTT assay method. […]
# In one embodiment, the present invention relates to a method of treating an individual suffering from a disease or condition wherein activation of PKC and inhibition of HDAC provides a benefit comprising administering a therapeutically effective amount of a compound of structural formula (I) to an individual in need thereof. […] Neuron survival was quantified by MTT assay, a colorimetric assay in which the amount of yellow MTT is reduced to purple formazan by active mitochondrial reductase enzymes in viable cells.
smiles,measurement,setting,value
"CC(=O)SCCCCCCOc1ccc2c(c1)N(C)C(C(C)C)C(=O)NC(CO)C2 (stereo not drawn) [Compound 12, Thioacetic acid S-[6-(5-hydroxymethyl-2-isopropyl-1-methyl-3-oxo-1,2,3,4,5,6-hexahydrobenzo[e][1,4]diazocin-9-yloxy)hexyl] ester]",histone H4 acetylation,[1],increase in histone H4 acetylation
same,protection from HCA-induced oxidative toxicity,[2],complete protection
